{"source": "PubChem BioAssay AID2685", "about": "(National Center for Advancing Translational Sciences (NCATS), 2010)", "note": "About 2,100 (0.66%) of roughly 320,000 compounds were called active. This list was built around the results that the source calls inconclusive (neither active nor inactive); the mix of calls is not that of the screen. The call rests on the fitted dose curve; in most records, active means well fitted inhibition curve with a large enough effect in the signal ratio, with a control signal flat (not every such curve was filed as active); inconclusive means small, poorly fitted or top-dose-only effect, or effect the other way, or a change in a side signal; inactive means flat fitted curve, though single readings scatter; the % refers to the signal ratio. A potency beside an inconclusive call is a rough fit, not a confirmed value. On the % scale 0 is the no-effect control and ±100 the full control effect; potency means the concentration at half of the fitted maximal effect.", "data": [{"assay": "qHTS Assay for Lipid Storage Modulators in Drosophila S3 Cells", "settings": "BODIPY lipid droplet fluorescence, 18-24 h, cells fed with added oleic acid; lipid storage change, negative = inhibition: at 46.1 µM (top of the series) unless noted", "procedure,_shortened": "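Drosophila S3 cells got compounds at several concentrations plus oleic acid (400 uM solution). Laser-scanning cytometry with 488 nm excitation read lipid droplets at 500-530 nm and cells at 575-640 nm. Percent activity was relative to 20 uM Triacsin C.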", "values": [{"smiles": "Cc1cc(C(=O)COC(=O)c2ccccc2Br)c(C)n1CC1CCCO1", "note": "(stereo not drawn)", "Potency": "inconclusive: 9.2 µM [activator, partial curve]"}, {"smiles": "CCC(C)NC(=O)CN(c1ccc(OC)cc1)S(=O)(=O)c1ccc(NC(C)=O)cc1", "note": "(stereo not drawn)", "lipid storage change, negative = inhibition": "inconclusive: -15.6%"}, {"smiles": "Cc1nn2c(=O)cc(CSc3nc4ccccc4[nH]3)nc2s1", "lipid storage change, negative = inhibition": "inconclusive: -17%"}, {"smiles": "CC(=O)Nc1ccc(-c2nc3cc(Cl)ccc3o2)cc1", "lipid storage change, negative = inhibition": "inconclusive: -7.34%"}, {"smiles": "CCc1nc(SCC(=O)Nc2nnc(CC)s2)c2c(=O)n(C)c(=O)n(C)c2n1", "Potency": "inconclusive: 14.6 µM [falling, single point]"}, {"smiles": "Nc1nc(Br)c2c(F)cccc2c1-c1ccc(Cl)cc1", "lipid storage change, negative = inhibition": "inconclusive: -23.1%"}, {"smiles": "Cc1csc(NC(=O)c2ccc3ccccc3n2)n1", "lipid storage change, negative = inhibition": "inactive: 5.76%"}, {"smiles": "CC1Cc2ccccc2N1C(=O)Cn1nc(C(=O)O)c2ccccc2c1=O", "note": "(stereo not drawn)", "lipid storage change, negative = inhibition": "inconclusive: 28.5%"}, {"smiles": "COc1ccccc1-n1ccnc(SCC(=O)NCc2ccccc2Cl)c1=O", "lipid storage change, negative = inhibition": "inconclusive"}, {"smiles": "O=C(NCc1ccccn1)C1CC(c2ccc(Cl)c(Cl)c2)=NO1", "note": "(stereo not drawn)", "lipid storage change, negative = inhibition": "inconclusive: 145%"}, {"smiles": "O=C(CSc1nccc(=O)[nH]1)Nc1cccc2ccccc12", "lipid storage change, negative = inhibition": "inconclusive: 29.4%"}, {"smiles": "COc1ccc(CC(=O)n2nc(-c3ccc(Cl)cc3)nc2NCc2ccco2)cc1", "lipid storage change, negative = inhibition": "inconclusive: 54.6%"}, {"smiles": "O=C(NCCC1=CCCCC1)c1ccc2c(c1)N(Cc1ccccc1)C(=O)CS2", "lipid storage change, negative = inhibition": "inconclusive: -4.18%"}, {"smiles": "CCCc1nc2nc(C)c(NS(=O)(=O)c3ccc(Cl)cc3)c(=O)n2[nH]1", "Potency": "inconclusive: 3.26 µM [activator, partial curve, poor fit]"}, {"smiles": "COc1ccc(NC(C)C(=O)N2CCN(Cc3ccccc3)CC2)cc1", "note": "(stereo not drawn)", "lipid storage change, negative = inhibition": "inconclusive: 79.6%"}, {"smiles": "CC(NC(=O)c1ccccc1F)c1nnc(SCC(=O)N2CCN(c3ccccc3)CC2)n1C", "note": "(stereo not drawn)", "Potency": "active: 0.82 µM"}, {"smiles": "COc1ccc(C(=O)N/N=C\\c2coc3ccc(C)cc3c2=O)cc1", "lipid storage change, negative = inhibition": "inconclusive: 15.5%"}, {"smiles": "O=C(C1=C(O)C(=O)N(CC2CCCO2)C1c1cccc(Cl)c1)c1ccco1", "note": "(stereo not drawn)", "Potency": "active: 0.82 µM"}, {"smiles": "CCOC(=O)C1=C(N)OC2=C(C(=O)CC(C)(C)C2)C1c1ccco1", "note": "(stereo not drawn)", "Potency": "inconclusive: 3.66 µM [falling, single point]"}, {"smiles": "CCOCCCn1c(SCC(=O)NC(C)(C)C)nc2ccccc2c1=O", "lipid storage change, negative = inhibition": "inactive: 29.5%"}, {"smiles": "CCCN(C(=O)c1cnccn1)c1c(N)n(Cc2ccccc2)c(=O)[nH]c1=O", "Potency": "inconclusive: 23.1 µM [activator, single point]"}, {"smiles": "Cc1c[n+]([O-])n(-c2ccc(C(=O)O)cc2)n1", "lipid storage change, negative = inhibition": "inconclusive: -25.3%"}, {"smiles": "COc1ccc(C(=O)N/C(=C\\c2cn(C)c3ccccc23)C(=O)OCC(C)C)cc1", "lipid storage change, negative = inhibition": "inconclusive: 23.6%"}, {"smiles": "CC(C)CCN1CCNC(=O)C1CC(=O)Nc1ccc(F)cc1", "note": "(stereo not drawn)", "lipid storage change, negative = inhibition": "inconclusive: 16%"}, {"smiles": "CCOc1ccc(N(CC(=O)NCc2ccc(Cl)cc2)S(=O)(=O)c2ccccc2)cc1", "lipid storage change, negative = inhibition": "inconclusive: 42.6%"}, {"smiles": "Cc1ccc(NC(=O)COC(=O)c2ccc(CN3CCCC3=O)cc2)cc1C", "lipid storage change, negative = inhibition": "inconclusive"}, {"smiles": "COc1ccc(-n2c(=S)[nH]c3cc(C(=O)Nc4cc(OC)c(OC)c(OC)c4)ccc3c2=O)c(OC)c1", "lipid storage change, negative = inhibition": "inconclusive: -15.8%"}, {"smiles": "O=C(CSc1nnnn1C1CCCCC1)Nc1ccccc1F", "lipid storage change, negative = inhibition": "inconclusive: -5.34%"}, {"smiles": "CCCn1c(C(C)Nc2nc(C)cs2)nc2cc(Cl)c(Cl)cc21", "note": "(stereo not drawn)", "lipid storage change, negative = inhibition": "inconclusive: -19%"}, {"smiles": "Cc1cc(C)nc(Sc2ncnc(N)c2[N+](=O)[O-])n1", "lipid storage change, negative = inhibition": "inconclusive: -90.2%"}, {"smiles": "COc1ccc(CNS(=O)(=O)c2cccc(S(=O)(=O)N3CCOCC3)c2)cc1", "lipid storage change, negative = inhibition": "inconclusive: 14.8%"}, {"smiles": "O=C1CCC(=O)N1OCCOc1ccccc1", "lipid storage change, negative = inhibition": "inconclusive: -28.2%"}, {"smiles": "CC(C)(Cc1nc2ccccc2[nH]1)C(=O)O", "Potency": "active: 23.1 µM"}, {"smiles": "CC(C)(C)OC(=O)NCc1ccc(CNC(=O)c2nc[nH]c2C(=O)N2CCN(C(=O)OC(C)(C)C)CC2)cc1", "lipid storage change, negative = inhibition": "inconclusive: -67.4%"}, {"smiles": "O=C(NCC#CCSc1nnc(-c2cccc3ccccc23)o1)c1cccs1", "Potency": "inconclusive: 0.366 µM [activator, partial curve, poor fit]"}, {"smiles": "Cc1cc(C)c(C)c(S(=O)(=O)NCCN2CCOCC2)c1C", "Potency": "inconclusive: 6.51 µM [activator, partial curve, poor fit]"}, {"smiles": "COc1ccc(N2CCN(C(=O)COC(=O)CNC(=O)c3ccccc3)CC2)cc1", "lipid storage change, negative = inhibition": "inconclusive: 30.9%"}, {"smiles": "O=C(NCCc1ccccc1)c1ccc(Cn2c(SCc3cccc(F)c3)nc3cccnc32)cc1", "Potency": "inconclusive: 9.2 µM [activator, single point]"}, {"smiles": "CCCN(Cc1ccccc1)C(=S)Nc1ccc(C(C)=O)cc1", "lipid storage change, negative = inhibition": "inconclusive: 18.1%"}, {"smiles": "O=C(CSc1nc(-c2ccco2)cc(C(F)(F)F)n1)NCc1cccs1", "Potency": "inconclusive: 1.03 µM [activator, full curve, poor fit]"}, {"smiles": "CCN(CC)S(=O)(=O)c1ccc(OC)c(NC(=O)c2cccc(C)c2[N+](=O)[O-])c1", "lipid storage change, negative = inhibition": "inconclusive: 9.12%"}, {"smiles": "Nc1nc(SCCOc2ccccc2)n[nH]1", "Potency": "inconclusive: 0.082 µM [activator, full curve, poor fit]"}, {"smiles": "CC(=O)Nc1ccc(NC(=O)c2ccc(-n3c(C)ccc3C)cc2)cc1", "lipid storage change, negative = inhibition": "inconclusive: 18.3%"}, {"smiles": "COc1cccc(NC(=O)CN(c2ccc3c(c2)OCO3)S(C)(=O)=O)c1", "lipid storage change, negative = inhibition": "inconclusive: -10.4%"}, {"smiles": "CCOC(=O)CCNC(=O)N1CCCC(C(=O)c2ccc3c(c2)OCO3)C1", "note": "(stereo not drawn)", "lipid storage change, negative = inhibition": "inconclusive: -27.1%"}, {"smiles": "Cc1cccc(Oc2c(C=O)c3ccccc3n2C)c1", "lipid storage change, negative = inhibition": "inconclusive: 15%"}, {"smiles": "CCCCc1nc2cc(C(=O)N3CCCCC3CCNC(C)=O)ccc2o1", "note": "(stereo not drawn)", "lipid storage change, negative = inhibition": "inconclusive: 92.4%"}, {"smiles": "COc1ccccc1NS(=O)(=O)c1cc(NC(=O)CCNC(C)=O)ccc1C", "lipid storage change, negative = inhibition": "inactive: 6.34%"}, {"smiles": "O=S(=O)(NCc1nnc2c(C(F)(F)F)cc(Cl)cn12)c1ccccc1", "lipid storage change, negative = inhibition": "inconclusive: 171%"}, {"smiles": "CCOC(=O)C1=C(Nc2ccc(Cl)cc2)OCC1=O", "Potency": "inconclusive: 2.31 µM [falling, partial curve]"}, {"smiles": "CN(C)CC(C)(C)CNC(=O)c1cc(Br)cc(Br)c1O", "lipid storage change, negative = inhibition": "inconclusive: 19.1%"}, {"smiles": "COc1ccc(C(=O)CCC(=O)O)cc1", "Potency": "inconclusive: 0.651 µM [activator, full curve]"}, {"smiles": "CC(C)C(c1nnnn1Cc1ccco1)N1CCN(c2nc3ccccc3s2)CC1", "note": "(stereo not drawn)", "Potency": "inconclusive: 6.51 µM [activator, single point]"}, {"smiles": "COCCNC(=O)CCc1c(C)nc2c(-c3ccc(F)cc3)c(C)nn2c1C", "lipid storage change, negative = inhibition": "inconclusive: 31.7%"}, {"smiles": "CCOC(=O)c1sc(=S)n(-c2ccccc2)c1C", "lipid storage change, negative = inhibition": "inconclusive: -22.9%"}, {"smiles": "Cc1[nH]c2ccc(F)cc2c1CCN(Cc1cccnc1)C(=S)Nc1cccc(F)c1", "lipid storage change, negative = inhibition": "inconclusive: 14.2%"}, {"smiles": "CSc1ncc(CN2CCN(C3CCCCC3)C(CCO)C2)cn1", "note": "(stereo not drawn)", "lipid storage change, negative = inhibition": "inconclusive: -2.46%"}, {"smiles": "CCCCn1c(-c2cccc(F)c2)nc2c1c(=O)[nH]c(=O)n2CC(C)C", "lipid storage change, negative = inhibition": "inconclusive: 132%"}, {"smiles": "COc1ccc(CN2CC34C=CC(O3)C(C(=O)O)C4C2=O)cc1", "note": "(stereo not drawn)", "lipid storage change, negative = inhibition": "inconclusive: 1.24%"}, {"smiles": "Cn1nc(N)c2c(-c3ccccc3)c(C#N)c(N)nc21", "Potency": "inconclusive: 29.1 µM [activator, single point]"}, {"smiles": "CCOc1ccc(C(=O)Nc2cccc(-c3ccc(N4CCOCC4)nn3)c2)cc1OCC", "lipid storage change, negative = inhibition": "inconclusive: 27.6%"}, {"smiles": "CC(C)c1ccc(N=C(N)N=C(N)N)cc1", "lipid storage change, negative = inhibition": "inconclusive: -3.2%"}, {"smiles": "ClCC1=Nc2cccc3cccc(c23)N1", "lipid storage change, negative = inhibition": "inconclusive: 33.4%"}, {"smiles": "COc1cccc(NC(=S)N(Cc2ccc(C(=O)O)cc2)Cc2ccc(OC)c(OC)c2)c1", "lipid storage change, negative = inhibition": "inconclusive: 5.63%"}, {"smiles": "COc1cc(/C=C/C(=O)O)cc(S(=O)(=O)NCCCC(=O)O)c1OC", "Potency": "inconclusive: 29.1 µM [falling, single point]"}, {"smiles": "CCn1c2ccccc2c2cc(NC(=O)N3CCOCC3)ccc21", "Potency": "inconclusive: 1.03 µM [activator, full curve, poor fit]"}, {"smiles": "CCOC(=O)c1c(C)[nH]c(C(=O)COC(=O)COc2ccccc2C=O)c1C", "lipid storage change, negative = inhibition": "inconclusive: -19.6%"}, {"smiles": "CCOc1ccccc1CNC(=O)CCCn1ncn2c(cc3occc32)c1=O", "Potency": "active: 29.1 µM"}, {"smiles": "CC(C)[C@H](NC(=O)[C@@H]1CSC2c3ccccc3C(=O)N21)C(=O)N1CCCCC1", "note": "(stereo partly drawn)", "Potency": "inconclusive: 29.1 µM [activator, single point]"}, {"smiles": "O=C(CN(c1cc(Cl)ccc1Cl)S(=O)(=O)c1ccccc1)N1CCOCC1", "Potency": "inconclusive: 14.6 µM [falling, partial curve, poor fit]"}, {"smiles": "COc1cccc(NC(=O)COc2ccc(C(=O)N3CCN(C)CC3)cc2)c1", "outcome": "inactive [at 46.1 µM]"}, {"smiles": "O=C(CN1CCOCC1)Nc1cccc(S(=O)(=O)N2CCCCCC2)c1", "lipid storage change, negative = inhibition": "inconclusive: 25.5%"}, {"smiles": "O=C(Nc1cccnc1)c1ccco1", "Potency": "inconclusive: 0.731 µM [cytotoxic, full curve]"}, {"smiles": "CCCN(CCC)CCNc1c(NC2CCN(C(=O)OCC)CC2)c(=O)c1=O", "Potency": "inconclusive: 20.6 µM [activator, single point]"}, {"smiles": "COc1ccccc1N1CCN(Cc2cccc(OC)c2OC)CC1", "Potency": "inconclusive: 4.11 µM [activator, full curve, poor fit]"}, {"smiles": "C#CC(=O)N(c1cccc(OC)c1)C(C(=O)NC1CCCC1)c1cccs1", "note": "(stereo not drawn)", "Potency": "inconclusive: 9.2 µM [falling, partial curve]"}, {"smiles": "Cc1ccc(N2C(=O)CSC2c2ccc3c(c2)OCO3)cc1", "note": "(stereo not drawn)", "lipid storage change, negative = inhibition": "inconclusive: 196%"}, {"smiles": "CCCCN(CC)CCNC(=O)CN1C(=O)COc2ccc(S(=O)(=O)N3CCCC3)cc21", "lipid storage change, negative = inhibition": "inconclusive: 9.09%"}]}]}
